The results in this text go back to PubChem BioAssay AID2685 (National Center for Advancing Translational Sciences (NCATS), 2010).

The structures appear in SMILES notation. The list shows a part of the results. The main result of the screen is listed elsewhere. These columns were measured beside it and carry no call. Most of these compounds were active or inconclusive in the main read-out, so they are no random draw. Potencies come from curve fits of mixed quality, noted in brackets.

A short description of the assay: qHTS Assay for Lipid Storage Modulators in Drosophila S3 Cells.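 For cell number change: cells counted by Cell Tracker Red CMTPX staining in the red channel.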 The settings on record: BODIPY lipid droplet fluorescence, 18-24 h; for cell number change: measured here: cell count max response, cells fed with added oleic acid. An outline of the steps:
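Laser-scanning cytometry quantifies lipid droplet accumulation (500–530 nm total intensity; droplet/cell object ratio) in oleic acid-fed (400 uM added) Drosophila S3 cells treated with a concentration series. 20 uM Triacsin C defined 100% inhibition.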

Setting [1] is: measured here: cell number channel AC50, cells fed with added oleic acid.
Where [2] appears, read: measured here: lipid fluorescence (Fed channel) AC50, cells fed with added oleic acid.

For orientation: AC50 means the concentration at which the activity in the assay is half-maximal. Low values mean greater potency, high ones weaker potency. Consider `COc1c(C)cccc1C(=O)NC(=S)Nc1ccccc1N1CCCC1`, for which the AC50 under setting [1] is 2.91 µM [rising, partial curve, poor fit].

Take `CC(OC(=O)c1ccc(-n2cnnn2)cc1)C(=O)NCc1ccccc1` (stereo not drawn): the cell number change stood at 19.5%.

`COc1cccc(C2C(C(=O)Nc3ccc(C)cc3C)=C(C)Nc3ncnn32)c1OC` (stereo not drawn): the cell number change stood at 22.9%. The AC50 under setting [2] was 32.6 µM [rising, single point].

With `O=c1[nH]nc(SCc2nc3ccccc3s2)n1C1CC1`, the cell number change was -43.7%. For the same molecule, under setting [1], the AC50 is 0.0651 µM [falling, full curve]. Under setting [2], the AC50 was 0.164 µM [falling, full curve].

As to `Clc1ccc(-c2nc(-c3cnccn3)no2)cc1`, the cell number change was found to be 31.7%. In addition, the AC50 under setting [1] was 3.66 µM [rising, full curve, poor fit]. Also, the AC50 under setting [2] is 3.26 µM [rising, partial curve].

As to `CN(C)CCCN(C(=O)c1ccc(S(=O)(=O)N(C)C)cc1)c1nc2ccc(F)cc2s1`, the cell number change is 8.09%. For the same molecule, the AC50 under setting [2] is 6.51 µM [falling, single point].

Turning to `CN(c1ccccc1)S(=O)(=O)c1ccc(Cl)c(C(=O)NCc2ccccc2CN2CCCC2)c1`, the cell number change worked out at 14.2%. Under setting [2], the AC50 is 29.1 µM [rising, partial curve, poor fit].

For the molecule `CN1CCN(CCOc2ccc(Cl)c(Cl)c2)CC1`, the cell number change was -23%. Moreover, under setting [1], the AC50 was 0.00461 µM [falling, full curve, poor fit].

As to `CCOc1cc(S(=O)(=O)Nc2ccncc2)ccc1F`, the cell number change is -7.73%. In addition, the AC50 under setting [2] is 1.64 µM [falling, full curve].

`COc1cccc(-n2c(=O)c3c(C)c(C(=O)N(C)C)sc3n(CC(=O)NCCc3ccc(OC)c(OC)c3)c2=O)c1`: the cell number change is -0.538%.

Consider `CO/N=C(\C(=O)N[C@@H]1C(=O)N2C(C(=O)O)=C(COC(C)=O)CS[C@H]12)c1csc(N)n1` (stereo in doubt), for which the cell number change came out at 34%. Besides, under setting [1], the AC50 is 29.1 µM [rising, single point]. In addition, under setting [2], the AC50 was 29.1 µM [rising, single point].

Take `O=C1N=C(N2CCCC2)S/C1=C\C=C\c1ccccc1`: the cell number change was 7.15%. Besides, the AC50 under setting [1] was 0.651 µM [rising, partial curve]. Also, the AC50 under setting [2] is 1.46 µM [rising, partial curve].

For `CCc1c(C)sc(NC(=O)OC)c1C(=O)N1CCCCC1`, the cell number change was -3.14%. Besides, the AC50 under setting [1] was 0.92 µM [falling, full curve, poor fit]. Further, the AC50 under setting [2] was 0.146 µM [falling, full curve].

For the molecule `O=C(CSc1ccccn1)Nc1ccc(NC(=O)CSc2ccccn2)cc1`, the cell number change is -24.6%.

Consider `Cc1oc2nc(SCCCC(=O)NCCCO)nc(N)c2c1C`, for which the AC50 under setting [1] was 2.06 µM [rising, partial curve].

As to `O=C1c2ccccc2NC(c2ccc(F)cc2)N1Cc1ccccc1` (stereo not drawn), the cell number change is -1.8%. Under setting [1], the AC50 was 0.00411 µM [rising, full curve, poor fit].

For the molecule `OCc1ccc(-c2nn(Cc3ccccc3)c3ccccc23)o1`, the cell number change is 18.6%. For the same molecule, the AC50 under setting [2] was 3.26 µM [rising, full curve].

For `NC(=O)c1cccnc1`, the AC50 under setting [2] was 23.1 µM [falling, single point].

Consider `O=C(NCCc1ccccn1)C1CCCN(S(=O)(=O)Cc2ccccc2)C1` (stereo not drawn), for which the AC50 is, setting by setting: under setting [1], 1.84 µM [falling, single point]; under setting [2], 6.51 µM [falling, single point].

Regarding `COc1ccc(CN(C)CC(=O)NC(=O)NCc2ccccc2)c(OC)c1`, the cell number change worked out at 37.2%. Moreover, under setting [1], the AC50 is 8.2 µM [rising, partial curve]. Moreover, the AC50 under setting [2] was 18.4 µM [rising, single point].

Consider `O=C1/C(=C/c2ccc(O)cc2)SC(=S)N1Cc1cccnc1`, for which the cell number change amounted to 40%. In addition, the AC50 under setting [1] was 4.11 µM [falling, partial curve]. In addition, the AC50 under setting [2] was 29.1 µM [rising, single point].

As to `CCCCC(=O)Nc1ccc(NC(=O)c2ccc3c(c2)OCO3)cc1OC`, the AC50 runs as follows: under setting [1], 0.206 µM [rising, full curve]; under setting [2], 0.206 µM [rising, partial curve].

In the case of `O=C1c2ccccc2C2=Nc3ccccc3SC(c3ccc(Cl)cc3)C12` (stereo not drawn), the cell number change was -37.3%. The AC50 under setting [1] was 20.6 µM [falling, single point]. Further, the AC50 under setting [2] is 25.9 µM [falling, single point].

On to `COc1cnc(-c2ccccn2)nc1Oc1ccc(C(C)(C)C)cc1`, for which the cell number change was -39.7%. Further, the AC50 under setting [1] was 18.4 µM [falling, single point].

Turning to `O=C(/C=C/c1ccc2c(c1)OCO2)N1CCN(c2ccccc2F)CC1`, the cell number change was 25.4%. Further, the AC50 under setting [1] was 0.82 µM [rising, full curve, poor fit]. Also, the AC50 under setting [2] was 23.1 µM [rising, single point].

In the case of `Cc1ccc(S(=O)(=O)N2CCC(C(=O)OCC(=O)NC(C)c3ccc(F)cc3)CC2)cc1C` (stereo not drawn), the cell number change was 9.96%. Besides, the AC50 under setting [1] was 6.51 µM [falling, single point]. Also, the AC50 under setting [2] is 2.59 µM [rising, partial curve].

On to `CC1CCCN(Cc2c(O)ccc3c(=O)c(-c4nc5ccccc5s4)c(N)oc23)C1` (stereo not drawn), for which the cell number change is -29.1%. Besides, the AC50 under setting [2] was 4.11 µM [falling, partial curve].

Turning to `Cc1nnc(NC(=O)CSc2ncc(-c3ccccc3)[nH]2)s1`, the cell number change came to 25%. For the same molecule, under setting [2], the AC50 is 6.51 µM [rising, single point].

`C=CCn1c(C)cc(C(=O)COc2nncc3ccccc23)c1C`: the AC50 runs as follows: under setting [1], 2.31 µM [falling, partial curve, poor fit]; under setting [2], 2.91 µM [falling, full curve].

`CCCn1ccnc1SCC(=O)Nc1c(C)n(C)n(-c2ccccc2)c1=O`: the cell number change is -64.2%. The AC50 under setting [1] is 0.82 µM [falling, full curve]. Further, the AC50 under setting [2] is 0.82 µM [falling, full curve].

As to `CN(CC(=O)Nc1ccccc1Cl)C(=O)COC(=O)c1nc(Cl)ccc1Cl`, under setting [2], the AC50 was 32.6 µM [rising, single point].

For `Cc1nc2scc(C)n2c(=O)c1S(=O)(=O)NCc1ccccc1`, the cell number change was -11%.

For `COc1cccc(NC(=O)CCNS(=O)(=O)c2ccc(Br)s2)c1`, the cell number change was 25.2%.

With `Cc1nn(-c2ccccc2)c(Cl)c1/C=C(\C#N)C(=O)NC(C)C`, the cell number change was -8.27%.

For the molecule `CC(C)C(C)NC(=O)COC(=O)c1cccc(C(=O)OCC(=O)NC(C)C(C)C)n1` (stereo not drawn), the cell number change was -27.5%. Further, under setting [2], the AC50 was 29.1 µM [falling, single point].

For `Cc1ccc(N2CC(C(=O)N/N=C/c3c(F)cccc3Cl)CC2=O)cc1` (stereo not drawn), the cell number change stood at 26.5%. In addition, under setting [2], the AC50 was 20.6 µM [rising, single point].
